# Primary screen of a compound library

Measurements from “University of Dundee, Small-Polar-MMV Screening Library” (2021), ChEMBL document CHEMBL3988442.

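Assay on Mycobacterium tuberculosis, filed only as a heat shock assay from Cornell; the read-out is not stated. The concentration is filed as 10 mM, unlikely as a test dose, so the dose is not known. The record gives no direction; compounds that gave an IC50 in retests scored well above the rest, so higher reads as stronger inhibition. About 69,000 compounds were tested under these conditions; 1.4% (about 930) showed 50% or more at least once.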

Values are the deposited “Percent Effect”, in %. How 0% and 100% were set is not recorded. Most values in the screen are low, and negative values occur. Compounds were drawn at random from those tested, without regard to their results.

compound	percent effect
COc1cccc(CC(C)NC(=O)NCCNC(C)=O)c1 (centres undefined)	-7.041
O=C(C1CCC1)N1CCc2[nH]cnc2C12CCN(C1CCOCC1)CC2	-2.391
Cn1nnnc1SCCNC(=O)C1CCN(C(=O)C2CCC2)CC1	12.31
CS(=O)(=O)CCN1CCc2c(ncn2C2CC2)C1	-0.006308
O=C(O)C(F)(F)F.O=C(O)C(F)(F)F.O=C1Nc2ccccc2C12CCN(Cc1ccccn1)CC2	-17.02
Cc1nn(C(C)C)c(C)c1NC(=O)c1ccncc1	5.424
[H][C@@]12COC[C@@H](CC(=O)NCc3cnc(C)cn3)[C@]1([H])CN(C1CCC1)C2	-6.06
Cc1ccccc1CN(C)C(=O)c1cc(C2CCCN2C)ccn1 (centres undefined)	-22.77
CCN1CCC2(CC1)CC(COC)N(Cc1csc(C)n1)C2.O=C(O)C(F)(F)F.O=C(O)C(F)(F)F (centres undefined)	-17.22
Cc1nn(C)cc1CN(C)c1nccc(-c2cn(C)nc2C)n1	-2.829
N#Cc1cccnc1N1CCN(C(=O)CCC(=O)c2cccs2)CC1	-16.23
CCN(CCn1cccn1)Cc1nc(-c2cc(F)ccc2F)oc1C	1.88
COc1cccc(-c2n[nH]cc2C(=O)NC(C)c2n[nH]c(C)n2)c1 (centres undefined)	-15.66
O=C(CCCNC(=O)C1CC1)Nc1cnn(-c2ccccc2Cl)c1	9.533
Cc1cc(C(F)(F)F)cc(N2C[C@@H](CN3CCOCC3)[C@@H](CO)C2)n1	15.14
Fc1ccc(CN2CCCCC2Cn2cncn2)c2ncccc12 (centres undefined)	-12.35
CC[C@@H](CO)Nc1nccc(-c2c[nH]c3cc(C(=O)OC)ccc23)n1	13.69
COc1cc(Cl)cc(C(=O)N2CCC3(CCCNC3)C2)c1 (centres undefined)	-5.025
CCN(C(=O)NCc1ncc(C)c(OC)c1C)C(C)c1cccnc1 (centres undefined)	-12.03
COC(=O)c1ccc(NC(C)c2ccc3c(c2)CC(=O)N3)nn1 (centres undefined)	0.7665
CC(C#N)CSc1ccccc1NCC(=O)NC(C1CC1)C1CC1 (centres undefined)	-25
O=C(O)C(F)(F)F.O=C(O)C(F)(F)F.O=C(O)C(F)(F)F.[H][C@@]12CCCO[C@]1([H])[C@H](N(CC)CC)CN2Cc1nccn1C	1.937
C[C@@H]1CN(S(=O)(=O)c2ccc(F)cc2F)C[C@]1(C)O	14.77
O=C(c1cc2cccc(F)c2[nH]1)N1C[C@@H](O)[C@H](N2CCCC2)C1	-10.63
CC1CCCN(Cc2c(C3CCOCC3)[nH]c3ncccc23)C1 (centres undefined)	-16.25
CCN(Cc1ccncc1)CC1(C)Cc2c(N)nc(N)nc2O1 (centres undefined)	-5.389
O=C(NS(=O)(=O)Cc1ccon1)c1ccsc1	2.998
COC(C(=O)N1CCCN(Cc2cscn2)CC1)c1ccccc1 (centres undefined)	27.61
Cc1nccn1CCC1CCCCN1C(=O)c1ccc2nonc2c1 (centres undefined)	0.3766
Cc1cc(CN(C)C(=O)NCc2ccccn2)no1	26.7
Cc1nc(NS(=O)(=O)c2cc(Br)ccc2C)no1	-3.31
CCn1cc2c(n1)C(COC)CN(C(=O)COc1ccccc1C)C2 (centres undefined)	1.422
CCCc1cc(=O)[nH]c2nnc(SCC(=O)NCCc3ccccc3)n12	9.107
O=C(c1nsc(Cl)c1Cl)N1CCc2nc3sccc3c(=O)n2CC1	3.053
[H][C@@]12C[C@H](O)CCN1C(=O)CN(CCSC(C)(C)C)C2=O	6.236
O=C(Cn1cccn1)NCC(c1cccs1)N1CCCC1 (centres undefined)	-9.831
CC(C)(C)n1ncc2c1CCCC2NCc1cccc2c1OCO2 (centres undefined)	-2.506
CC(=O)c1ccc(S(=O)(=O)N2CCC(c3n[nH]c(C)n3)CC2)cc1	-4.195
CCCN(Cc1nc(-c2ccoc2)oc1C)CC1CCCO1 (centres undefined)	6.218
O=C(CCn1cccn1)N1CCC(c2nnc(-c3ccccn3)o2)CC1	6.365
COc1cc(CNCCn2cc(C)cn2)cc2c1OCCO2	-8.702
[H][C@]12CC[C@]([H])(CN(C3Cc4ccccc4C3)C1)N(C(=O)COCCOC)C2	26.21
c1ccc(OCc2nc(CNCCn3cccn3)cs2)cc1	46.73
O=C(O)C(F)(F)F.[H][C@@]12COC[C@]1(COCc1cccnc1)CN(C(=O)c1occc1C)C2	-17.09
CCN1C(=O)C2(CCOCC2)c2cc(NC(=O)c3cc(C)n[nH]3)ccc21	-7.359
COc1cc(Cl)ccc1C(=O)N1CCCC(n2nc(C)nc2C)C1 (centres undefined)	1.812
O=C(c1ccoc1)N1CCC2(CC1)COC(COCc1ccccn1)C2 (centres undefined)	-28.14
Cc1nn(C)c2cnn(Cc3ccc(C(=O)NCC4CC4)o3)c12	2.088
CC(C)(C)c1nc(CN2CCC(c3ccnn3CCO)CC2)no1	-10.37
O=C(NCCSc1cnn[nH]1)c1c[nH]nc1C1CCCCC1	29.73
O=S(=O)(NCc1ccc(S(=O)(=O)N2CCCC2)s1)c1ccc(F)cc1Cl	4.012
CCOc1ccc(NC(=O)NCC(C)(O)c2cccs2)cc1 (centres undefined)	4.506
O=C(NC[C@H]1OC[C@@H](NCc2ccccn2)[C@@H]1O)c1ccncc1	-1.357
c1cnnc(NCC2CN(CCn3cncn3)CCO2)c1 (centres undefined)	-0.9045
O=C(N1CCCC1)N1CCN(CC2CC2)c2ncccc2C1	32
OCc1cc2ccccc2nc1NC1CC=CC1	-23.07
O=C(O)C(F)(F)F.O=C(O)C(F)(F)F.O=c1ccc2c(n1Cc1cccnc1)CCN(CC1CCOC1)CC2 (centres undefined)	-0.9032
Cc1ccc(NC2COC3(CCN(CC(C)C)CC3)C2)nn1.O=C(O)C(F)(F)F (centres undefined)	-13.25
CC(C)c1nc(NC(=O)CCCn2cccc2)n(C)n1	5.406
CN(C)c1ccc(CNC2(c3ccc(F)cc3)CCOCC2)cc1F	-20.77
Cc1ccc(C(=O)NC2CCN(C(=O)Nc3ccccn3)CC2)o1	-4.808
CCCc1cc(CNc2cc(CCC)nc3ccnn23)on1	14.31
CCc1[nH]c2c(CNc3nccc(N)n3)cc(C)cc2c1C	83.04
Cc1cc(N2CCC(N(C)C(=O)c3sccc3C)CC2)nc(C)n1	9.484
COCC(Nc1nc(N(C)C)nc2c1CCNCC2)c1ccccn1 (centres undefined)	10.41
Cc1cc(CN[C@H](C(N)=O)[C@@H](C)O)c(C)s1	-5.848
COc1cc(CNc2nc(C(F)(F)F)no2)cc(OC)c1OC	-4.857
CCc1ncnc2c1CCN(C(=O)c1ccccn1)CC2.O=C(O)C(F)(F)F	-22.3
O=C(c1ccc[nH]1)N1CC2(CCN(c3nccs3)C2)C1	-20.86
CCOc1ccc2cc(C(=O)NCCC(=O)N(C)C)[nH]c2c1	-14.7
Cc1ncnc2c1CCN(CC1CCOC1)CC2.O=C(O)C(F)(F)F (centres undefined)	-0.562
CCCc1nnnn1Cc1cn2c(C)cccc2n1	-2.58
CCCN1CCC(NC(=O)NCCc2nc(CC)c(C)s2)CC1	1.34
O=C(O)c1cccc(C2CCCN(S(=O)(=O)N3CCOCC3)C2)c1 (centres undefined)	21.85
O=C(O)C(F)(F)F.[H][C@@]12CCN(Cc3c(C)noc3C)C[C@]1(C(=O)NC1CCCC1)CCO2	-41.14
CN1C(=O)C2(CC(=O)Nc3[nH]ncc32)c2cc(Cl)ccc21 (centres undefined)	-20.83
Cc1ccc(CN2CCc3ncnc(-c4ccncc4)c3CC2)o1.O=C(O)C(F)(F)F.O=C(O)C(F)(F)F	-44.19
CN1CCCN(c2ncnc(N3CCOCC3)c2N)CC1	19.06
[H][C@]12CC[C@@]3(N=C(C)N(CC)C3=O)[C@@]1([H])CN(S(=O)(=O)CC(C)C)C2	-4.825
CN(CC1CCCCO1)c1nc(-c2cccnc2)nc2c1CCNC2 (centres undefined)	6.799
CCN(CC)c1ccc(CNC(=O)c2ccccn2)cn1	-17.25
Cc1ccc(C(=O)N2CCc3c(CN4CCCC4)nn(C)c3C2)cc1C.O=C(O)C(F)(F)F	-28.38
O=C(NC1CCC(N2C(=O)CCC2=O)CC1)c1c[nH]c2ccccc12 (centres undefined)	-0.8439

Once more, the final 9:

compound,percent effect
O=C(O)C(F)(F)F.[H][C@@]12CCN(Cc3c(C)noc3C)C[C@]1(C(=O)NC1CCCC1)CCO2,-41.14
CN1C(=O)C2(CC(=O)Nc3[nH]ncc32)c2cc(Cl)ccc21 (centres undefined),-20.83
Cc1ccc(CN2CCc3ncnc(-c4ccncc4)c3CC2)o1.O=C(O)C(F)(F)F.O=C(O)C(F)(F)F,-44.19
CN1CCCN(c2ncnc(N3CCOCC3)c2N)CC1,19.06
[H][C@]12CC[C@@]3(N=C(C)N(CC)C3=O)[C@@]1([H])CN(S(=O)(=O)CC(C)C)C2,-4.825
CN(CC1CCCCO1)c1nc(-c2cccnc2)nc2c1CCNC2 (centres undefined),6.799
CCN(CC)c1ccc(CNC(=O)c2ccccn2)cn1,-17.25
Cc1ccc(C(=O)N2CCc3c(CN4CCCC4)nn(C)c3C2)cc1C.O=C(O)C(F)(F)F,-28.38
O=C(NC1CCC(N2C(=O)CCC2=O)CC1)c1c[nH]c2ccccc12 (centres undefined),-0.8439